Results published in article PMC6271229 (2014).
Strings that start with PEPTIDE1 are HELM notation: dots part the residues, brackets hold end groups and non-standard residues.

Assay: general procedure: Fmoc solid-phase peptide synthesis; trityl chloride resin
Conditions: whole synthesis, analytical HPLC (Thermo Hypersil Gold C18, 150 × 4.6 mm)

With “PEPTIDE1{W.R.W.R.W.R.W.R.W.R}$PEPTIDE1,PEPTIDE1,1:R1-10:R2$$$V2.0” the “final HPLC purity” value was >95%.
